Source: publication doi:10.1101/2020.03.16.993600
These are yes or no findings as the source states them, for the method shown. Binding seen in cells or lysates may run through a third protein. Some results given as binding are weak or reduced against the parent protein; the word gives no strength. For some assays here: Where a sequence is shown, tags or fusion partners need not be part of it.

The chains behind the UniProt entries cited, without tags or fusion partners. Where a name states a change or a piece, a line headed by the entry shows the natural chain unless it says otherwise. A line that says so, or that is headed by a name, gives the form on record, which may keep a tag or linker.
UniProt Q96PZ2: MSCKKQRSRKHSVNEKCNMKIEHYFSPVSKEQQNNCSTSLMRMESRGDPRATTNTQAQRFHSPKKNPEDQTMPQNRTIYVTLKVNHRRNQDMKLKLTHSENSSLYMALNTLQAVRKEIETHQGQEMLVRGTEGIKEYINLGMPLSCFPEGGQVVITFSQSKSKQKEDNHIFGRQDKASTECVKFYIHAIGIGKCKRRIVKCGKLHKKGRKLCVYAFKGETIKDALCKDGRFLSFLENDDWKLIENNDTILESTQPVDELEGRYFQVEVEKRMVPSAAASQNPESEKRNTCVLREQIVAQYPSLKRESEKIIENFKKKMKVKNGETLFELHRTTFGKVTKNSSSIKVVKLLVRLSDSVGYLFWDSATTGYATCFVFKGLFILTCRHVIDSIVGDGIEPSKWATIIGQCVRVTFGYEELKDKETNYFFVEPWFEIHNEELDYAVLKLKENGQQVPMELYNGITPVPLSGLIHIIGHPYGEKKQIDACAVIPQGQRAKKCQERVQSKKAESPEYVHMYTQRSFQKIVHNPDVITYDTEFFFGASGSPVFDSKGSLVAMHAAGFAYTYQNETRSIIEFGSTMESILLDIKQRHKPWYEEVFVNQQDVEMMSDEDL
GFP-FAM111A *PIP (Q96PZ2, form named): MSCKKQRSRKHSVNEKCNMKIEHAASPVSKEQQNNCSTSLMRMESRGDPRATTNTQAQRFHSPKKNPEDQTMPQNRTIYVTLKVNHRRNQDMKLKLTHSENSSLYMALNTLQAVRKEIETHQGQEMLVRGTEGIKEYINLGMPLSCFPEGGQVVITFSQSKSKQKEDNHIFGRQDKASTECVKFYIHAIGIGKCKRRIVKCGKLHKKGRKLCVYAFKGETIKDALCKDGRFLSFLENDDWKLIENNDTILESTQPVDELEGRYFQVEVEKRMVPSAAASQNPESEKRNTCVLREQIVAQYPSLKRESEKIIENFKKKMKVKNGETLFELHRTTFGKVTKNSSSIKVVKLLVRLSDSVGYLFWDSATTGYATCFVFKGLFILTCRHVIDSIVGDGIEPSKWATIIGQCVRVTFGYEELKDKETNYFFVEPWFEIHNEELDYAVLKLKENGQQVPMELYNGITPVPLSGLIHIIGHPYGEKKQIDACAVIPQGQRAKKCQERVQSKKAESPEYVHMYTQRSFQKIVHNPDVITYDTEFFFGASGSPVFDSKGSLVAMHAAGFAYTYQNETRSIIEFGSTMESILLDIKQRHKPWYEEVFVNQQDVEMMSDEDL

T1: RFC1 (endogenous) (human (endogenous in U2OS)) (UniProt P35251)
T1 sequence: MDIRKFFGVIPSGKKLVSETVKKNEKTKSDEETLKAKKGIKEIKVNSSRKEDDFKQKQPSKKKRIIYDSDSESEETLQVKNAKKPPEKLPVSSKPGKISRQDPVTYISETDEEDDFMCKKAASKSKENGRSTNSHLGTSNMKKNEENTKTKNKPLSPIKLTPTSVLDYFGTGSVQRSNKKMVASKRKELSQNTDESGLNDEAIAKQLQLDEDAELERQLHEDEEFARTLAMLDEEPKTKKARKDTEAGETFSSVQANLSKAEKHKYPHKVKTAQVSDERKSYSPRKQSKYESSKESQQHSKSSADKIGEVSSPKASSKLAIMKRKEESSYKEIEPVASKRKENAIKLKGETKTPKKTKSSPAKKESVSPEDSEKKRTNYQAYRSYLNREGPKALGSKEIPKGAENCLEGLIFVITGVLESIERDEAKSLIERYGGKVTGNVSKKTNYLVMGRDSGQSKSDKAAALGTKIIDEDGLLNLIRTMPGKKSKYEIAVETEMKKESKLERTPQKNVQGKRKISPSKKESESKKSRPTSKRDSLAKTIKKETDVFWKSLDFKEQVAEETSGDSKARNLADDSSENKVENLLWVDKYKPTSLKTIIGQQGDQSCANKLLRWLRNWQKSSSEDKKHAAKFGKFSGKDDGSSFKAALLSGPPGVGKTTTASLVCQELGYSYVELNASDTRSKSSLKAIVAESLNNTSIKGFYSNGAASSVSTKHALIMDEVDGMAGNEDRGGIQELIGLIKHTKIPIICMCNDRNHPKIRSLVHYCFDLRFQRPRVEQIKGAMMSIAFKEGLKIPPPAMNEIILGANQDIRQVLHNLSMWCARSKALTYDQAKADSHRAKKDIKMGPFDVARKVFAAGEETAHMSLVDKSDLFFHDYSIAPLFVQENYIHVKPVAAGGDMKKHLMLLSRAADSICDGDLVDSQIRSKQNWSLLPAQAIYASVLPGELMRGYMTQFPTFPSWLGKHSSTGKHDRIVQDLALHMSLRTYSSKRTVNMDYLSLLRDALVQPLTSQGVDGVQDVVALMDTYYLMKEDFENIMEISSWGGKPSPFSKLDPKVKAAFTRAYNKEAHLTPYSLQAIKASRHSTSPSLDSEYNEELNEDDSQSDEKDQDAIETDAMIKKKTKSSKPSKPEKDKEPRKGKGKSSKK

T2: FLAG-tagged RFC1 (human) (UniProt P35251)
T2 sequence: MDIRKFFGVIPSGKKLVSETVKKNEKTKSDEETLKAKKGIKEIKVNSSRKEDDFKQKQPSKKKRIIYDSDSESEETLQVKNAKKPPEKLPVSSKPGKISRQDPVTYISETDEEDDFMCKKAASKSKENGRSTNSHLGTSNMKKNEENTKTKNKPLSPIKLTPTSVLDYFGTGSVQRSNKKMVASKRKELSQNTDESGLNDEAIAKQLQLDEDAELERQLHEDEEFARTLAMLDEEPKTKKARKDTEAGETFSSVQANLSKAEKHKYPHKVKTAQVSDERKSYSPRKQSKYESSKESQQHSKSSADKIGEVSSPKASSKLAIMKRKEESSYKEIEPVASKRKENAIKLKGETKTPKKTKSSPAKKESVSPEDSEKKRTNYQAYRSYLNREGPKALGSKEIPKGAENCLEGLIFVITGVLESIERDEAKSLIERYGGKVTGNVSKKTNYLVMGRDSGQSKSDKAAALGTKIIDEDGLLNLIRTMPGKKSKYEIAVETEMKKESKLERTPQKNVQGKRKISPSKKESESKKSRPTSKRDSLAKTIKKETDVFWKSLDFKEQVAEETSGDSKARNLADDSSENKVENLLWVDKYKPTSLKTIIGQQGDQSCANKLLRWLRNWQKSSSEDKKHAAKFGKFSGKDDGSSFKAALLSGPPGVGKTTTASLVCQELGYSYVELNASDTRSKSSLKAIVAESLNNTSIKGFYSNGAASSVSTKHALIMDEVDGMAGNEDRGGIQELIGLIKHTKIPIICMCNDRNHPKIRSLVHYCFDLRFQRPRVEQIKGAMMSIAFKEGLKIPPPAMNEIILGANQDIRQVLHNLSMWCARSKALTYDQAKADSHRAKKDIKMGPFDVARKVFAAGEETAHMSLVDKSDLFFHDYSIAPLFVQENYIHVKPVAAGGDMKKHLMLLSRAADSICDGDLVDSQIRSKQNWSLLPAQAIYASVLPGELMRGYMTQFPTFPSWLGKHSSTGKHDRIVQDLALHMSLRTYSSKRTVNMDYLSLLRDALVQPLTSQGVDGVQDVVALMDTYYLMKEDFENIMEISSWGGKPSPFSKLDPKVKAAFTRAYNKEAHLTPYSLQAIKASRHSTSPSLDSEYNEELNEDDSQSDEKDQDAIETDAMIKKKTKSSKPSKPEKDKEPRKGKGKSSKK

T3: GFP-FAM111B WT (human) (UniProt Q6SJ93)
T3 sequence: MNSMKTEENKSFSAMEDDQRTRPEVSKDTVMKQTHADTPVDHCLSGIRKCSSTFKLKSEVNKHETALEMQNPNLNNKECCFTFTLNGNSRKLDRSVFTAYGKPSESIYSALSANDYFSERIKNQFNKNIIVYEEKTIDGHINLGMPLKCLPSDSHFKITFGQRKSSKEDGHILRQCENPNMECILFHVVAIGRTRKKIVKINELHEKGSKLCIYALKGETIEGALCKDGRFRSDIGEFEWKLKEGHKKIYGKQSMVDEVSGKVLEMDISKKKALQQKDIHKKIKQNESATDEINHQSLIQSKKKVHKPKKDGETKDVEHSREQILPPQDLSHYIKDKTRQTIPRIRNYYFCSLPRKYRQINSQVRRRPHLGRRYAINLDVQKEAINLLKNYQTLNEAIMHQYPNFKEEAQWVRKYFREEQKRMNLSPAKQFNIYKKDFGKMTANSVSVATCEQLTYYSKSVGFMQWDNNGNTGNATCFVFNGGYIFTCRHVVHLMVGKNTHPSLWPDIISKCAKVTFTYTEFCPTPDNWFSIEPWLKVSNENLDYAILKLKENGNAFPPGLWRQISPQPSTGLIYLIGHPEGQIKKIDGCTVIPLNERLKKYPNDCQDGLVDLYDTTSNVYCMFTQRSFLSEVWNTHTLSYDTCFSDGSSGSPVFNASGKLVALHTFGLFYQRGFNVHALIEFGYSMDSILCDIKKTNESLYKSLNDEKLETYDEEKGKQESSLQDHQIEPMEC


Key:
Assay in all cases: co-IP
[1] = biological target: T1, RFC1 (endogenous) (human (endogenous in U2OS))
FLAG-tagged RFC1 (human) = biological target: T2, FLAG-tagged RFC1 (human)
GFP-FAM111B WT (human) = biological target: T3, GFP-FAM111B WT (human)
GFP-FAM111A WT (human) = GFP-FAM111A WT (human) (UniProt Q96PZ2)

| Molecule | binding [1] | binding (FLAG-tagged RFC1 (human)) | binding (GFP-FAM111B WT (human)) | binding (GFP-FAM111A WT (human)) |
| --- | --- | --- | --- | --- |
| FAM111A (endogenous) (from UniProt Q96PZ2 1-611) (enzyme) | binds | binds | binds |  |
| GFP-FAM111A *PIP (from UniProt Q96PZ2 1-611) (enzyme) | binds |  |  |  |
| FAM111B (endogenous) (enzyme, UniProt Q6SJ93 1-734) MNSMKTEENKSFSAMEDDQRTRPEVSKDTVMKQTHADTPVDHCLSGIRKCSSTFKLKSEVNKHETALEMQNPNLNNKECCFTFTLNGNSRKLDRSVFTAYGKPSESIYSALSANDYFSERIKNQFNKNIIVYEEKTIDGHINLGMPLKCLPSDSHFKITFGQRKSSKEDGHILRQCENPNMECILFHVVAIGRTRKKIVKINELHEKGSKLCIYALKGETIEGALCKDGRFRSDIGEFEWKLKEGHKKIYGKQSMVDEVSGKVLEMDISKKKALQQKDIHKKIKQNESATDEINHQSLIQSKKKVHKPKKDGETKDVEHSREQILPPQDLSHYIKDKTRQTIPRIRNYYFCSLPRKYRQINSQVRRRPHLGRRYAINLDVQKEAINLLKNYQTLNEAIMHQYPNFKEEAQWVRKYFREEQKRMNLSPAKQFNIYKKDFGKMTANSVSVATCEQLTYYSKSVGFMQWDNNGNTGNATCFVFNGGYIFTCRHVVHLMVGKNTHPSLWPDIISKCAKVTFTYTEFCPTPDNWFSIEPWLKVSNENLDYAILKLKENGNAFPPGLWRQISPQPSTGLIYLIGHPEGQIKKIDGCTVIPLNERLKKYPNDCQDGLVDLYDTTSNVYCMFTQRSFLSEVWNTHTLSYDTCFSDGSSGSPVFNASGKLVALHTFGLFYQRGFNVHALIEFGYSMDSILCDIKKTNESLYKSLNDEKLETYDEEKGKQESSLQDHQIEPMEC |  |  |  | binds |
